Test: Chelation of radionuclides, TLC and autoradiography
Format: physicochemical
Settings: Tc-99m

Compound	specific activity [mCi/μg]
CC1=C2N=C(C=C3N=C(C(C)=C4[N-]C(C(CC(N)=O)C4(C)CCC(=O)NCC(C)OP(=O)([O-])OC4C(CO)OC(n5cnc6cc(C)c(C)cc65)C4O)C4(C)N=C1C(CCC(=O)NCCCCNC(=O)CN(CCN(CCN(CC(=O)O)CC(=O)O)CC(=O)O)CC(=O)O)C4(C)CC(N)=O)C(CCC(N)=O)C3(C)C)C(CCC(N)=O)C2(C)CC(N)=O.[CH3-].[Co+3] (centres unmarked) [MEB12DTPA, methylcobalamin-b-(4-aminobutyl)-amide-DTPA]	10
CC1=C2N=C(C=C3N=C(C(C)=C4[N-]C(C(CC(N)=O)C4(C)CCC(=O)NCC(C)OP(=O)([O-])OC4C(CO)OC(n5cnc6cc(C)c(C)cc65)C4O)C4(C)N=C1C(CCC(=O)NCCCCNC(=O)CN(CCN(CCN(CC(=O)O)CC(=O)O)CC(=O)O)CC(=O)O)C4(C)CC(N)=O)C(CCC(N)=O)C3(C)C)C(CCC(N)=O)C2(C)CC(N)=O.[CH2-]C1OC(n2cnc3c(N)ncnc32)C(O)C1O.[Co+3] (centres unmarked) [ADB12DTPA, adenosylcobalamin-b-(4-aminobutyl)-amide-DTPA]	10

— patent publication US7462345B2, “Radionuclide labeling of vitamin B12 and coenzymes thereof” (Mayo Foundation for Medical Education and Research, priority 1995, dated 2008)
